Data: article doi:10.1101/2023.01.13.523954
Results are given in words; binding and its absence hold for the method and conditions named. Binding seen in cells or lysates may run through a third protein. Some binding calls cover weakened binding; strength is not graded here.

Amino acid sequences for entries named in this document (tags omitted).
UniProt Q9HWE5, whole entry: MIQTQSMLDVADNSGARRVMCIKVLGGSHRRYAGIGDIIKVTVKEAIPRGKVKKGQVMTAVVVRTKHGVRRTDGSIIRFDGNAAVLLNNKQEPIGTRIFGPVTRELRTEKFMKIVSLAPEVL
UniProt Q02SH2, whole entry: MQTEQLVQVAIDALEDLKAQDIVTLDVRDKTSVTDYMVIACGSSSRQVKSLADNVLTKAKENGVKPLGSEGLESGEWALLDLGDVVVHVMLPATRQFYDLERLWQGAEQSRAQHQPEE

Molecular target: rplN (P. aeruginosa (endogenous in strain PAO1)) (UniProt Q9HWE5)
Assay: cross-linking

**Q.** For “ribosome silencing factor rsfS (from UniProt Q02SH2 1-118)”, which binding is on record?
**A.** binds
